Results are given in words; binding and its absence hold for the method and conditions named. In cells and extracts the contact can be indirect. Some entries that bind do so weakly or less than the wild type.
Biological target: fatty acid transport protein FAT/CD36 (rat (endogenous in rat heart)) (UniProt Q07969)
Assay: co-IP; FAT/CD36 immunoprecipitated with anti-CD36 (sc-9154) and protein A agarose overnight at 4°C from rat heart whole tissue and membrane fraction lysates (1000 µg protein); washes in PBS with 1% NP-40, then PBS; OGT immunoblot (DM-17); hearts perfused with glucosamine and O-GlcNAcase inhibition

Amino acid sequences for entries named in this document (tags omitted).
UniProt Q07969: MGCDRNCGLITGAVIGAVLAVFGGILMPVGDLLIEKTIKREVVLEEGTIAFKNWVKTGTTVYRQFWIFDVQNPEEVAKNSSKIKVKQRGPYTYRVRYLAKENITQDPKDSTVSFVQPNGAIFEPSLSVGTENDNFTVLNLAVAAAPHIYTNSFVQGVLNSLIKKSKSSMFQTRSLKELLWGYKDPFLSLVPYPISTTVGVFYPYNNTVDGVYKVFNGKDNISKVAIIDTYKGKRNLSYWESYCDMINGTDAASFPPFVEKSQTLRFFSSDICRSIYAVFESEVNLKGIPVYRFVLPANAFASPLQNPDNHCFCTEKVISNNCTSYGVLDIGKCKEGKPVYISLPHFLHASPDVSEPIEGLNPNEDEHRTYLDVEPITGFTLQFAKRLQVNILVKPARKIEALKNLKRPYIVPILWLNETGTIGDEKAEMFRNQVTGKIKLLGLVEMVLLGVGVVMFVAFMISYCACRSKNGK

- binding: binds
B1: O-GlcNAc transferase (OGT) (enzyme, UniProt P56558 1-1036)
chain: MASSVGNVADSTGLAELAHREYQAGDFEAAERHCMQLWRQEPDNTGVLLLLSSIHFQCRRLDRSAHFSTLAIKQNPLLAEAYSNLGNVYKERGQLQEAIEHYRHALRLKPDFIDGYINLAAALVAAGDMEGAVQAYVSALQYNPDLYCVRSDLGNLLKALGRLEEAKACYLKAIETQPNFAVAWSNLGCVFNAQGEIWLAIHHFEKAVTLDPNFLDAYINLGNVLKEARIFDRAVAAYLRALSLSPNHAVVHGNLACVYYEQGLIDLAIDTYRRAIELQPHFPDAYCNLANALKEKGSVAEAEDCYNTALRLCPTHADSLNNLANIKREQGNIEEAVRLYRKALEVFPEFAAAHSNLASVLQQQGKLQEALMHYKEAIRISPTFADAYSNMGNTLKEMQDVQGALQCYTRAIQINPAFADAHSNLASIHKDSGNIPEAIASYRTALKLKPDFPDAYCNLAHCLQIVCDWTDYDERMKKLVSIVAEQLEKNRLPSVHPHHSMLYPLSHGFRKAIAERHGNLCLDKINVLHKPPYEHPKDLKLSDGRLRVGYVSSDFGNHPTSHLMQSIPGMHNPDKFEVFCYALSPDDGTNFRVKVMAEANHFIDLSQIPCNGKAADRIHQDGIHILVNMNGYTKGARNELFALRPAPIQAMWLGYPGTSGALFMDYIITDQETSPAEVAEQYSEKLAYMPHTFFIGDHANMFPHLKKKAVIDFKSNGHIYDNRIVLNGIDLKAFLDSLPDVKIVKMKCPDGGDNADTTNTALNMPVIPMNTIAEAVIEMINRGQIQITINGFSISNGLATTQINNKAATGEEVPRTIIVTTRSQYGLPEDAIVYCNFNQLYKIDPSTLQMGANILKRVPNSVLWLLRFPAVGEPNIQQYAQNMGLPQNRIIFSPVAPKEEHVRRGQLADVCLDTPLCNGHTTGMDVLWAGTPMVTMPGETLASRVAASQLTCLGCLELIAKSRQEYEDIAVKLGTDLEYLKKIRGKVWKQRISSPLFNTKQYTMELERLYLQMWEHYAAGNKPDHMIKPVEVTESA
